# According to the supplement of paper PMC12819154, “High-throughput peptide-centric local stability assay extends protein–ligand identification to membrane proteins, tissues and bacteria” (Nature Structural & Molecular Biology, 2025):
# The chains behind the UniProt entries cited, without tags or fusion partners. Where a name states a change or a piece, a line headed by the entry shows the natural chain unless it says otherwise.
# UniProt Q91WU0: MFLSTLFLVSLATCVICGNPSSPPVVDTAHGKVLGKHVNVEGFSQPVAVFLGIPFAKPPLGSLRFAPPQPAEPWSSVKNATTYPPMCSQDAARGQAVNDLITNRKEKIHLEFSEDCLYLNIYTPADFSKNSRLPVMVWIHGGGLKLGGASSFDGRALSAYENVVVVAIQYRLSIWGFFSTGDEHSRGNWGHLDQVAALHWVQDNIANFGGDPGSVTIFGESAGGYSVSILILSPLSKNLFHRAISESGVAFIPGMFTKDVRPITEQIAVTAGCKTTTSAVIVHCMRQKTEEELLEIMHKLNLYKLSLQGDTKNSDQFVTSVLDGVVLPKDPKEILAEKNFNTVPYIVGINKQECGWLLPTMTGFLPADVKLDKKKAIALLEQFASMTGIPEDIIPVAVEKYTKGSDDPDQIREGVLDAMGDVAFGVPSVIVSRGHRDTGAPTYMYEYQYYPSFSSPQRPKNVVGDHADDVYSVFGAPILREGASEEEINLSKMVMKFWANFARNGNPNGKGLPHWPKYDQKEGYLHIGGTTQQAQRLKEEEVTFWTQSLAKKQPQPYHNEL
# UniProt Q91Y47: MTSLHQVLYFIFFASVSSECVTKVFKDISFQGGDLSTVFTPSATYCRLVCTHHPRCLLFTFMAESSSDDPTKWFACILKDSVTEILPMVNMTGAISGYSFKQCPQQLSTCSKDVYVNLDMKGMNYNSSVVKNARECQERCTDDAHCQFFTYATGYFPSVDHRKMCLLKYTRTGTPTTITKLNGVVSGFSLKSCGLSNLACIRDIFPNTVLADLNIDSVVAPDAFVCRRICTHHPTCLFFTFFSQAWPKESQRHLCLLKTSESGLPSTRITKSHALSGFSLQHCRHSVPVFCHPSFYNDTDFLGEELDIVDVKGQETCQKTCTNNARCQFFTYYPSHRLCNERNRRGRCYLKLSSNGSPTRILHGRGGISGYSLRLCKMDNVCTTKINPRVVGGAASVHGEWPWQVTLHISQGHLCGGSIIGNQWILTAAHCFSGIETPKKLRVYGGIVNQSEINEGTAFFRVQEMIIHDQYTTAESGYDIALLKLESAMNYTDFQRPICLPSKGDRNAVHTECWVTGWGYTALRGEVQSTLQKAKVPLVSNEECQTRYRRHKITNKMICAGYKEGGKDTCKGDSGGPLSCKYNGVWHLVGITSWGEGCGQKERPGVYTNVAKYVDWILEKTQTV
# UniProt Q91WS4: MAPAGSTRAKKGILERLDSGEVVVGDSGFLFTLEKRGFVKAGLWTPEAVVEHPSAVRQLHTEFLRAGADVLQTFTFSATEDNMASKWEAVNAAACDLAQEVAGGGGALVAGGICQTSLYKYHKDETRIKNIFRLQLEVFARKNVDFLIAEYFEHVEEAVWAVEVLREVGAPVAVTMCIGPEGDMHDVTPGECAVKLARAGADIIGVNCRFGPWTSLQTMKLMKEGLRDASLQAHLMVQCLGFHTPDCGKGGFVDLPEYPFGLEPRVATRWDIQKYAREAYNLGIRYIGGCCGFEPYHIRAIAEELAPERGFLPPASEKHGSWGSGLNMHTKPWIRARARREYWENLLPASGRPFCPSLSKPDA
# UniProt Q91VC7: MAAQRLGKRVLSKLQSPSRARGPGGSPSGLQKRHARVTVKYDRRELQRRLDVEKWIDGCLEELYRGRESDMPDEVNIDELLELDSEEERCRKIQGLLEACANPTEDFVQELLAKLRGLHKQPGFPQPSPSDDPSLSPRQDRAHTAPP
# UniProt Q91ZX7: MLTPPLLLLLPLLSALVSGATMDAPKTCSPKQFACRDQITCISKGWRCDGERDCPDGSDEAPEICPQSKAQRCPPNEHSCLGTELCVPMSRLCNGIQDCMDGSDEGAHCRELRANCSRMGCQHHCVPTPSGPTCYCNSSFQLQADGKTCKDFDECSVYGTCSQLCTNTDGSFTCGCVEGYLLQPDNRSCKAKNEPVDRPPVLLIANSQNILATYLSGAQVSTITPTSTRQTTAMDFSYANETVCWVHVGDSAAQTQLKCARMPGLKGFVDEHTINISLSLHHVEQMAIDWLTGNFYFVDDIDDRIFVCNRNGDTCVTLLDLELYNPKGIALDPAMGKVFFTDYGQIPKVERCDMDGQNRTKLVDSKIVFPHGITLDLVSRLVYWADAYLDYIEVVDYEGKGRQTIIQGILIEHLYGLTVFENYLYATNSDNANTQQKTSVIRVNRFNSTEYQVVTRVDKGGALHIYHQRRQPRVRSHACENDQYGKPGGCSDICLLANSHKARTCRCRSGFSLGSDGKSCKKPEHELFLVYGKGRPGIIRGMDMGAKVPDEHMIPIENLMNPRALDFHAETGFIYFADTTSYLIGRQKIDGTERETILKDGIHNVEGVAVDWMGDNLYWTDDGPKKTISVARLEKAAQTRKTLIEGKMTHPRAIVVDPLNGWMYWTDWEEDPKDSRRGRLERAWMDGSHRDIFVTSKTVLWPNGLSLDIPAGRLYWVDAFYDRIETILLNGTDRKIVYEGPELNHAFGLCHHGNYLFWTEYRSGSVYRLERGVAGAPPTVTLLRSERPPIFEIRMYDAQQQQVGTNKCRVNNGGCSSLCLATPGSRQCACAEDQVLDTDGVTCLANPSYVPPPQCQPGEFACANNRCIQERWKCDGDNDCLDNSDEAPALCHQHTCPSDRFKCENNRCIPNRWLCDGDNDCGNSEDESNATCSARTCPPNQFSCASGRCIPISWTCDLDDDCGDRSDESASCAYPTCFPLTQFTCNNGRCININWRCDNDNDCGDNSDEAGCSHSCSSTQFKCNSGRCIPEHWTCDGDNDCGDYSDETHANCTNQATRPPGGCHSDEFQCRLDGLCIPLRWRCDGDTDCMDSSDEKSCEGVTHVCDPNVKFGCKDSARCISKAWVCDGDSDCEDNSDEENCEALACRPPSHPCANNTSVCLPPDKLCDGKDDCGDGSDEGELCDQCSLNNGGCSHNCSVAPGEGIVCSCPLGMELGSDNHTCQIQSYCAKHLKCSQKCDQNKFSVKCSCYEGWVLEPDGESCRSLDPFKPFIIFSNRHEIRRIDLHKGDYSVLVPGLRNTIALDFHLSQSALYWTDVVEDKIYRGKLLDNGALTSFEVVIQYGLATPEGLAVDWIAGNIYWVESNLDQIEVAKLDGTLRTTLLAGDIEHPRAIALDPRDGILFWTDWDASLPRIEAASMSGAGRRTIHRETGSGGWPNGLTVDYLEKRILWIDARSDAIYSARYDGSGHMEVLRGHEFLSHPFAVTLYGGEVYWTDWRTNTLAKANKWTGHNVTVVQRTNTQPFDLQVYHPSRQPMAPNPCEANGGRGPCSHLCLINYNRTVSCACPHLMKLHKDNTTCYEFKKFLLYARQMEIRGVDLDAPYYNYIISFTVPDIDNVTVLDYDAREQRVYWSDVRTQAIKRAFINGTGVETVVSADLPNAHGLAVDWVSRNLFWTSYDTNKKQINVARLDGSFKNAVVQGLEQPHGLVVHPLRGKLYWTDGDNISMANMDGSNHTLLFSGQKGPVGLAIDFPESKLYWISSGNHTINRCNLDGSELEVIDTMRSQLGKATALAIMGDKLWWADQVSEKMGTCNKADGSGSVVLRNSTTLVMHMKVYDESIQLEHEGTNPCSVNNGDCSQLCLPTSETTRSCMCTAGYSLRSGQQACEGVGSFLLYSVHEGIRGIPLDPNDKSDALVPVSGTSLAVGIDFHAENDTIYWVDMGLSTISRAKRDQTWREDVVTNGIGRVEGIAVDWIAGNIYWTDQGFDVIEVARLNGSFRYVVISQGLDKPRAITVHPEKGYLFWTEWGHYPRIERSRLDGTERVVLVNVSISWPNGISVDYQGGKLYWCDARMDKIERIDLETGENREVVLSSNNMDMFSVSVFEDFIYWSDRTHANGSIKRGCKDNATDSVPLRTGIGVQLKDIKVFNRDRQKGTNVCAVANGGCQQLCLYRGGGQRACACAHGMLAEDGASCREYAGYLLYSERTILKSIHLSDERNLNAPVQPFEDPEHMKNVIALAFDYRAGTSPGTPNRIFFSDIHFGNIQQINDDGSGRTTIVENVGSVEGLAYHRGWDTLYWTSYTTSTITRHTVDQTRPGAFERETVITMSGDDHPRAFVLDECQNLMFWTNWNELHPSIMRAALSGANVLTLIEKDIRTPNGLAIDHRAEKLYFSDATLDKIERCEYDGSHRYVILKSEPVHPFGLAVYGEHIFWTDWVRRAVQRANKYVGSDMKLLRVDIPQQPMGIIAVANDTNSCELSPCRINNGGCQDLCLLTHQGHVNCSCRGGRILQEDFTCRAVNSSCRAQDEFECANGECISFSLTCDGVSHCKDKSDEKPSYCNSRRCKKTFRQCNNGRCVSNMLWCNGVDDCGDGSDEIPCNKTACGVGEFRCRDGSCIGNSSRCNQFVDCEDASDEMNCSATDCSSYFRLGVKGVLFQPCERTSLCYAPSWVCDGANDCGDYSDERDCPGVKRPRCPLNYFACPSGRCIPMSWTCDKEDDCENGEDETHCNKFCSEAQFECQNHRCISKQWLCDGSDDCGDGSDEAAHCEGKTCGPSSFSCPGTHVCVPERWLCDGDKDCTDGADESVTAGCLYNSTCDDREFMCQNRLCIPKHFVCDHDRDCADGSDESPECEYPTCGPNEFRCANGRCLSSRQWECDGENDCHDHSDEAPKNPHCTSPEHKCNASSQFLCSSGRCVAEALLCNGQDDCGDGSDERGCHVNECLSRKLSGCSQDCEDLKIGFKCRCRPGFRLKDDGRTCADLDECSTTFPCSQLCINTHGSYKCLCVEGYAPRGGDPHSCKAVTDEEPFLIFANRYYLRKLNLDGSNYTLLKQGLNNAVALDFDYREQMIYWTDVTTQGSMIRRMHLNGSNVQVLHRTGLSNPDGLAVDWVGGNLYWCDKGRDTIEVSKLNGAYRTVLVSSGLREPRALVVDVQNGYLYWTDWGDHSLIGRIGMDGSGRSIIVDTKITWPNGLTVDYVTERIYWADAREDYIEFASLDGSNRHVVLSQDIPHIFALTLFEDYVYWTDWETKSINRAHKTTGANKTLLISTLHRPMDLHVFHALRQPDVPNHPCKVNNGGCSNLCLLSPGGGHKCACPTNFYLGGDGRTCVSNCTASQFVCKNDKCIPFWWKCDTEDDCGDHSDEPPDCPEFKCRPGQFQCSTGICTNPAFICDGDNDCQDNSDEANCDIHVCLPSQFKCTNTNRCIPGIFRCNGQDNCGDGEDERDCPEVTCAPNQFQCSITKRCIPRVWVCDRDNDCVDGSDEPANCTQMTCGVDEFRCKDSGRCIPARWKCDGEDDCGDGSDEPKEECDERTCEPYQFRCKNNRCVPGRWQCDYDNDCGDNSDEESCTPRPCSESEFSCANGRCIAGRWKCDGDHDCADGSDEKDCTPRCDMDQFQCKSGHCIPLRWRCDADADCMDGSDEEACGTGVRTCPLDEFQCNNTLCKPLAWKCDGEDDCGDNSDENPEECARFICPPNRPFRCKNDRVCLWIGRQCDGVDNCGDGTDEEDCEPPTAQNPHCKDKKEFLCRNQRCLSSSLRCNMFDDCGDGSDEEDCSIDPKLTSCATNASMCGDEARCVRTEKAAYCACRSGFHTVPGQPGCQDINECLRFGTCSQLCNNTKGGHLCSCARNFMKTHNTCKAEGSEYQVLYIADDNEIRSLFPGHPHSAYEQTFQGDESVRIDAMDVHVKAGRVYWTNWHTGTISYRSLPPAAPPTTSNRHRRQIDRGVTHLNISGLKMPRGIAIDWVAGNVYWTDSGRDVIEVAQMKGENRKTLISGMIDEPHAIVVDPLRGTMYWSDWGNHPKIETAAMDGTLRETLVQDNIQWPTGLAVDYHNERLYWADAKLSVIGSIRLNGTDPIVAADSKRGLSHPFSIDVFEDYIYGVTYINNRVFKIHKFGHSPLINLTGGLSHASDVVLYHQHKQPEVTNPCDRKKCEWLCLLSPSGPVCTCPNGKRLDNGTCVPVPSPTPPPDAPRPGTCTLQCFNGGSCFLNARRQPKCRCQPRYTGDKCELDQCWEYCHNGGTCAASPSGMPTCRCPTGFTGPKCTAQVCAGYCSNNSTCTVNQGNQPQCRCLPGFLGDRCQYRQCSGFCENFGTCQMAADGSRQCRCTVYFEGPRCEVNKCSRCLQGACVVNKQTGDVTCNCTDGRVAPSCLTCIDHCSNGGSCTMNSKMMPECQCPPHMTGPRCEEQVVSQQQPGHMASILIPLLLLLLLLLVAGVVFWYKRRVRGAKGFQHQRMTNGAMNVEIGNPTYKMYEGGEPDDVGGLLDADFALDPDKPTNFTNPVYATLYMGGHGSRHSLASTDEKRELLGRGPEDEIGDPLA
# UniProt Q99J77: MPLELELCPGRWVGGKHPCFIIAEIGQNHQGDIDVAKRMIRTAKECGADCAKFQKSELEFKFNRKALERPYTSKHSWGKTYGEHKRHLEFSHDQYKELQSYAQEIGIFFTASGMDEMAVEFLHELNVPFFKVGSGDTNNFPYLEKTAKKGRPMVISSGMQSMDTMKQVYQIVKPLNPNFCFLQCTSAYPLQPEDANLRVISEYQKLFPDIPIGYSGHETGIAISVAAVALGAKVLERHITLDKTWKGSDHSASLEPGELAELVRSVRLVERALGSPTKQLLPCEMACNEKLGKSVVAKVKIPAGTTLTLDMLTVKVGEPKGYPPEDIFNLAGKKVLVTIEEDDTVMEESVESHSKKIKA
# This is one part of the list. Small differences around the control level are noise.
# Compound: CN[C@@H]1C[C@H]2O[C@@](C)([C@@H]1OC)n1c3ccccc3c3c4c(c5c6ccccc6n2c5c31)C(=O)NC4 [staurosporine]
# Experiment: log2 fold change of pooled soluble protein (PISA), ligand vs vehicle (log2 ratio); higher = more thermally stabilized
# Conditions: ligand concentration: 20 uM; assay format: PISA pool 52.9/55.5/58.6 C
row,Target,log2 fold change of pooled soluble protein
1,UniProt Q921V5,-0.123
2,UniProt Q8VHG0,0.267
3,UniProt Q91YP2,0.0498
4,UniProt Q91YN9,0.124
5,UniProt Q91WU0,0.16
6,UniProt Q91WK1,-0.0581
7,UniProt Q91Y47,0.144
8,UniProt Q91WS4,-0.364
9,UniProt Q8VEA4,0.219
10,UniProt Q91WG5,0.696
11,UniProt Q91VC7,-0.014
12,UniProt Q91YD9,-0.13
13,UniProt Q91WG8,-0.0635
14,UniProt Q91ZX7,-0.049
15,UniProt Q99JB8,0.0882
16,UniProt Q91ZN5,-0.104
17,UniProt Q8VEK0,-0.012
18,UniProt Q91X83,-0.0162
19,UniProt Q8VE62,0.0985

row,Target,log2 fold change of pooled soluble protein
1,UniProt Q91WC0,-0.0145
2,UniProt Q91Z67,-0.129
3,UniProt Q922B1,0.116
4,UniProt Q8VDZ4,-0.0453
5,UniProt Q99J09,-0.395
6,UniProt Q8VE70,0.122
7,UniProt Q922D4,0.111
8,UniProt Q8VD66,0.0944
9,UniProt Q91XV3,-0.0729
10,UniProt Q91WG1,0.141
11,UniProt Q99J77,-0.1
12,UniProt Q8VI47,0.0288
13,UniProt Q924T3,0.0534
14,UniProt Q925J9,-0.0453
15,UniProt Q921U8,0.0938
16,UniProt Q91WG2,0.145
17,UniProt Q91ZZ3,0.0399
18,UniProt Q91WM2,-0.213
19,UniProt Q923B1,-0.38

# Rewritten with tabs: entries from further up
row	Target	log2 fold change of pooled soluble protein
9	UniProt Q91XV3	-0.0729
10	UniProt Q91WG1	0.141
11	UniProt Q99J77	-0.1
12	UniProt Q8VI47	0.0288
13	UniProt Q924T3	0.0534
14	UniProt Q925J9	-0.0453
15	UniProt Q921U8	0.0938
16	UniProt Q91WG2	0.145
17	UniProt Q91ZZ3	0.0399
18	UniProt Q91WM2	-0.213
